Measured values reported in patent US20260176266A1, “PIPERIDINOPYRIMIDINE DERIVATIVE, PREPARATION METHOD THEREFOR AND USE THEREOF IN MEDICINE” (TUOJIE BIOTECH (SHANGHAI) CO., LTD., priority 2022, published 2026).
Some of these results come from one statement about several compounds together.

System: OVCAR3 ovarian cancer cells
Test: Inhibitory activity against ovarian cancer cells (OVCAR3), CellTiter-Glo viability
Assay type: cell-based
Settings: OVCAR3, statement in words
Procedure: OVCAR3 ovarian cancer cells were cultured in a cell incubator at […] with 5% CO2 using RPMI 1640 medium with […]. On the first day, the cells were plated in a 96-well plate at a cell concentration of 2500 cells/well and cultured overnight in the incubator. On the second day, the cells were treated with compounds. The maximum compound concentration was 10 μM and was 3-fold diluted to obtain 9 concentrations, and the final concentration of DMSO was 0.1%. After the cells were cultured in the incubator for another 5 days, cell viability was tested using the Celltiter Glo assay kit (Promega), and the testing method was consistent with the operational method provided by the kit. Data were processed using GraphPad Prism 8, and IC50 was calculated.
[formula] • X: the logarithm of the compound concentration; Y: % inhibition.

With `[2H]C([2H])([2H])N(C[C@@H](NC(=O)N1Cc2nc(N[C@@H](C)c3ccccn3)ncc2C[C@H]1C)c1ccccc1)C([2H])([2H])[2H]` [Example 19, (R)—N—((S)-2-(Bis(methyl-d3)amino)-1-phenylethyl)-6-methyl-2-(((S)-1-(pyridin-2-yl)ethyl)amino)-5,8-dihydropyrido[3,4-d]pyrimidine-7(6H)-carboxamide] the “activity against OVCAR3 compared with the compound of Example 18” value was “superior to that of the compound of Example 18”.

`Cc1cc(Nc2ncc3c(n2)CN(C(=O)N[C@H](CN(C)C)c2ccccc2)[C@H](C)C3)ccn1` [Example 15, (R)—N—((S)-2-(Dimethylamino)-1-phenylethyl)-6-methyl-2-((2-methylpyridin-4-yl)amino)-5,8-dihydropyrido[3,4-d]pyrimidine-7(6H)-carboxamide] was tested, and the “activity against OVCAR3 compared with the compound of Example 18” value was “superior to that of the compound of Example 18”.

`CCN(C)C[C@@H](NC(=O)N1Cc2nc(NCc3ccn(C)n3)ncc2C[C@H]1C)c1ccccc1` [Example 8, (R)—N—((S)-2-(Ethyl(methyl)amino)-1-phenylethyl)-6-methyl-2-(((1-methyl-1H-pyrazol-3-yl)methyl)amino)-5,8-dihydropyrido[3,4-d]pyrimidine-7(6H)-carboxamide] was tested, and the “activity against OVCAR3 compared with the compound of Example 18” value was “superior to that of the compound of Example 18”.

With `C[C@@H]1Cc2cnc(Nc3cnn(CC4CC4)c3)nc2CN1C(=O)N[C@H](CN(C)C)c1ccccc1` [Example 16, (R)-2-((1-(Cyclopropylmethyl)-1H-pyrazol-4-yl)amino)-N—((S)-2-(dimethylamino)-1-phenylethyl)-6-methyl-5,8-dihydropyrido[3,4-d]pyrimidine-7(6H)-carboxamide] the “activity against OVCAR3 compared with the compound of Example 18” value was “superior to that of the compound of Example 18”.

`CC1Cc2cnc(NC3CCOCC3)nc2CN1C(=O)N[C@H](CN(C)C)c1ccccc1` (stereo partly drawn) [Example 10, N—((S)-2-(Dimethylamino)-1-phenylethyl)-6-methyl-2-((tetrahydro-2H-pyran-4-yl)amino)-5,8-dihydropyrido[3,4-d]pyrimidine-7(6H)-carboxamide] was tested, and the “activity against OVCAR3 compared with the compound of Example 18” value was “superior to that of the compound of Example 18”.

In the case of `C[C@@H]1Cc2cnc(Nc3cnn(C)c3)nc2CN1C(=O)N[C@H](CN(C)C)c1ccccc1` [Example 17, (R)—N—((S)-2-(Dimethylamino)-1-phenylethyl)-6-methyl-2-((1-methyl-1H-pyrazol-4-yl)amino)-5,8-dihydropyrido[3,4-d]pyrimidine-7(6H)-carboxamide], the “activity against OVCAR3 compared with the compound of Example 18” value is reported as “superior to that of the compound of Example 18”.

With `C[C@@H]1Cc2cnc(N[C@H](C)c3ccccc3)nc2CN1C(=O)N[C@H](CN(C)C)c1ccccc1` [Example 5, (R)—N—((S)-2-(Dimethylamino)-1-phenylethyl)-6-methyl-2-(((R)-1-phenylethyl)amino)-5,8-dihydropyrido[3,4-d]pyrimidine-7(6H)-carboxamide] the “activity against OVCAR3 compared with the compound of Example 18” value was “superior to that of the compound of Example 18”.

`C[C@H](Nc1ncc2c(n1)CN(C(=O)N[C@H](CN(C)C)c1ccccc1)[C@H](C)C2)c1ccccc1` [Example 9, (R)—N—((S)-2-(Dimethylamino)-1-phenylethyl)-6-methyl-2-(((S)-1-phenylethyl)amino)-5,8-dihydropyrido[3,4-d]pyrimidine-7(6H)-carboxamide] was tested, and the “activity against OVCAR3 compared with the compound of Example 18” value was “superior to that of the compound of Example 18”.

For `C[C@H](Nc1ncc2c(n1)CN(C(=O)N[C@H](CN(C)C)c1ccccc1)[C@H](C)C2)c1ccccn1` [Example 6, (R)—N—((S)-2-(Dimethylamino)-1-phenylethyl)-6-methyl-2-(((S)-1-(pyridin-2-yl)ethyl)amino)-5,8-dihydropyrido[3,4-d]pyrimidine-7(6H)-carboxamide], the “activity against OVCAR3 compared with the compound of Example 18” value was “superior to that of the compound of Example 18”.
